Data published in the supplement of paper PMC10849652.
This is one part of the list. Residues, ends and D or L forms follow the SMILES beside them. *: point of attachment. Cbz = O=C(OCc1ccccc1)*

Chains of the proteins cited; added tags and fusions are not shown. Lines headed by an entry give the natural chain unless they say otherwise; changes in a name come on top.
UniProt Q92974: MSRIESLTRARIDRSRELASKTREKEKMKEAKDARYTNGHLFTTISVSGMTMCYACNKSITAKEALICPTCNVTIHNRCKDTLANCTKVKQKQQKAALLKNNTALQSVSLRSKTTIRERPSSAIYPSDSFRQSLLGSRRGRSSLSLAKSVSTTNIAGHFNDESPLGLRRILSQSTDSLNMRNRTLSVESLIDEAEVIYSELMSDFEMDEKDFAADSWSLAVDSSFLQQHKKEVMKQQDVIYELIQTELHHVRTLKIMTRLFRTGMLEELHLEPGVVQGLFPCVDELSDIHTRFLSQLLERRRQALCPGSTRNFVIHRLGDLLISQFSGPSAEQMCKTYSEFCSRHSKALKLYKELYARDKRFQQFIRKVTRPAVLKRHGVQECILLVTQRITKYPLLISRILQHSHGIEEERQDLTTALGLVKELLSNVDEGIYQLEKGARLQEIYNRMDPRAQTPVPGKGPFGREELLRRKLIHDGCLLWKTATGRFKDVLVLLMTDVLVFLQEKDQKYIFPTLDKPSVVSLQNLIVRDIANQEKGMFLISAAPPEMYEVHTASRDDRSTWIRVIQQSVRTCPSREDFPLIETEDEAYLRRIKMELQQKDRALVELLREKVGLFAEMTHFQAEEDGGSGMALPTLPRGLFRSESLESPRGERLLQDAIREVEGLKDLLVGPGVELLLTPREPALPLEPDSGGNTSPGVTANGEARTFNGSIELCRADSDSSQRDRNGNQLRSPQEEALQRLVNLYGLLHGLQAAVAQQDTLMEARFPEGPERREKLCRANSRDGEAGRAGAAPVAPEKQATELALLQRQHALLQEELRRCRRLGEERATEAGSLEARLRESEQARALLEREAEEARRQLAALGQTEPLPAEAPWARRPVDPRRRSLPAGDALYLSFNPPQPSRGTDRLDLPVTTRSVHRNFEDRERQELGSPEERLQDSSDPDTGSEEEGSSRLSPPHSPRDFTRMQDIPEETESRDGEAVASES
UniProt Q9BZZ5: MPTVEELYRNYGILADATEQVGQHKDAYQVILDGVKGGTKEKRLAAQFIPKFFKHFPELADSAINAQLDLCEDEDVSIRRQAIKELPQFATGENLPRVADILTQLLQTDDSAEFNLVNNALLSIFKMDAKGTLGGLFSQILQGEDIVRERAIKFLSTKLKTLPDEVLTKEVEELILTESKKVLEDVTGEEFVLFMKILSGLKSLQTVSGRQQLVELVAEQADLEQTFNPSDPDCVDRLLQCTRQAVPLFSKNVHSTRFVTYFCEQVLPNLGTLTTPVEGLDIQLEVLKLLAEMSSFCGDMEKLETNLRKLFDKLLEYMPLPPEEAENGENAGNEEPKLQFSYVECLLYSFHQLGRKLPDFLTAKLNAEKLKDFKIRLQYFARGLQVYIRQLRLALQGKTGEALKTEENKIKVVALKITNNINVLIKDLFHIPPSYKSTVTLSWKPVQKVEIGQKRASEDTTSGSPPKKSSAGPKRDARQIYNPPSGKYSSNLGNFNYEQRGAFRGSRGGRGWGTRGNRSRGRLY
UniProt Q92572: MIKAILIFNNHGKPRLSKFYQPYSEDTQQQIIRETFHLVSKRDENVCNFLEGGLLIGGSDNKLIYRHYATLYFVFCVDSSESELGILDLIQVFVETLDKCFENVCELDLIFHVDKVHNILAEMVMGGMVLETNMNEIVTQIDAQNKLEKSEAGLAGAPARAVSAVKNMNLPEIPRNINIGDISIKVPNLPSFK
UniProt Q9HDC9: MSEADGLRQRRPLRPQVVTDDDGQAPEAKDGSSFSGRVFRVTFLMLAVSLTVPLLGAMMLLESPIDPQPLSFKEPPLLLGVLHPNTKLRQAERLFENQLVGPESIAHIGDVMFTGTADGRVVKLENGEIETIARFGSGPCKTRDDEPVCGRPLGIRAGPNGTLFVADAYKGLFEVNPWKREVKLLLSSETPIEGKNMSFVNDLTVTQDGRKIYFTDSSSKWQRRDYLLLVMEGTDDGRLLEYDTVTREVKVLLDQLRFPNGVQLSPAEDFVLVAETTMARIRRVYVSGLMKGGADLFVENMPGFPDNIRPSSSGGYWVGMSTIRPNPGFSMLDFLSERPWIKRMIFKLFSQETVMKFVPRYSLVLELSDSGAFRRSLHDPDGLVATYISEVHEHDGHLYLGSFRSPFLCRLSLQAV
UniProt Q9BUR5: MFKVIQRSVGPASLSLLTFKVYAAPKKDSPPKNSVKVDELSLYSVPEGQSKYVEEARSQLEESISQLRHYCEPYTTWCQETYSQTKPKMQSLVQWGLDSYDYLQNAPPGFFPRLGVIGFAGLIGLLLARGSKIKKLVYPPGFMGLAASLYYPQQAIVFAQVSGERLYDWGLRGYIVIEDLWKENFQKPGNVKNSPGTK
UniProt Q92619: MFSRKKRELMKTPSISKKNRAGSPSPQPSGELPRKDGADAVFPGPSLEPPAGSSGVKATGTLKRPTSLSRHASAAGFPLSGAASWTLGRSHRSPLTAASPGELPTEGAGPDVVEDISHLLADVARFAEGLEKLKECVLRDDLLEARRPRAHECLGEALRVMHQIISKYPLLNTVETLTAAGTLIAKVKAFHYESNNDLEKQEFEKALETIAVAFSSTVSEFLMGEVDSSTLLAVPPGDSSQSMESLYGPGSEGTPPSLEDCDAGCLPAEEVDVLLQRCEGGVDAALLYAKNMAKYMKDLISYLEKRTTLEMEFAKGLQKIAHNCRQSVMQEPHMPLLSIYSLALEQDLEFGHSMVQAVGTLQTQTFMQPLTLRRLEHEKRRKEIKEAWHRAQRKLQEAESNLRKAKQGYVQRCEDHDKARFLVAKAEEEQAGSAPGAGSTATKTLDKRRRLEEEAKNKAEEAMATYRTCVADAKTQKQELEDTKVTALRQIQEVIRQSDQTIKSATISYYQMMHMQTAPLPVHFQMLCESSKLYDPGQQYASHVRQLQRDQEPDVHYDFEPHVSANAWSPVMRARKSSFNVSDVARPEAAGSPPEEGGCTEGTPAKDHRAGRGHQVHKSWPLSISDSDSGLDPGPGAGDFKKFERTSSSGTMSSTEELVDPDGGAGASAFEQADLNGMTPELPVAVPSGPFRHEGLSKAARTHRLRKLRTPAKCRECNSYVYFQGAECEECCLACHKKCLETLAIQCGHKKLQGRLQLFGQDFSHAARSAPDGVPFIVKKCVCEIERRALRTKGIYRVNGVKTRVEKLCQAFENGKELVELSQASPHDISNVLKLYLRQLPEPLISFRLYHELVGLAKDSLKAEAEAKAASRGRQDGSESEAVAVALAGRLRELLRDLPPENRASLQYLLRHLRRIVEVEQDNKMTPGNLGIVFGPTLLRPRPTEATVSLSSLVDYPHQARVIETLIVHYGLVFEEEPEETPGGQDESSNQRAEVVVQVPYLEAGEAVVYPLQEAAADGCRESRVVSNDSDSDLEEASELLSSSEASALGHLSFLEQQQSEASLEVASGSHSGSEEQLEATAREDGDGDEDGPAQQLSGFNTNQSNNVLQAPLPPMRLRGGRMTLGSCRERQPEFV
UniProt P84077: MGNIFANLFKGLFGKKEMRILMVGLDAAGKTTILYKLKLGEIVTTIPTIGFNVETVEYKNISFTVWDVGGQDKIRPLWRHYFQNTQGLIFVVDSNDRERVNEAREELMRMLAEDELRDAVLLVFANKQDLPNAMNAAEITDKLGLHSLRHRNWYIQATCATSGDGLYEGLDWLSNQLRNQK
UniProt Q8IV38: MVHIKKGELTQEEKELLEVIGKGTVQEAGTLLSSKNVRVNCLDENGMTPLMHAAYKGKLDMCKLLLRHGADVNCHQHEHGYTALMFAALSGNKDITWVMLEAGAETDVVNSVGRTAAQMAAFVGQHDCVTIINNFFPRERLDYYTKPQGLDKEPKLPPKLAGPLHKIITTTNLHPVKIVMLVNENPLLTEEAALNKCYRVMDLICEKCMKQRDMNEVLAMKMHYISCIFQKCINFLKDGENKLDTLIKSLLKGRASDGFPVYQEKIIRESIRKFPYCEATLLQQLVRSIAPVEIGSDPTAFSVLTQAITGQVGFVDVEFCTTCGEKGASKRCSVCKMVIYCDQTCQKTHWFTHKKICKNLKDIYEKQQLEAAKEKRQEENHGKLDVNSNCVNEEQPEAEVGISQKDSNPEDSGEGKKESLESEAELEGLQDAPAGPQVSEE
UniProt Q9Y4X5: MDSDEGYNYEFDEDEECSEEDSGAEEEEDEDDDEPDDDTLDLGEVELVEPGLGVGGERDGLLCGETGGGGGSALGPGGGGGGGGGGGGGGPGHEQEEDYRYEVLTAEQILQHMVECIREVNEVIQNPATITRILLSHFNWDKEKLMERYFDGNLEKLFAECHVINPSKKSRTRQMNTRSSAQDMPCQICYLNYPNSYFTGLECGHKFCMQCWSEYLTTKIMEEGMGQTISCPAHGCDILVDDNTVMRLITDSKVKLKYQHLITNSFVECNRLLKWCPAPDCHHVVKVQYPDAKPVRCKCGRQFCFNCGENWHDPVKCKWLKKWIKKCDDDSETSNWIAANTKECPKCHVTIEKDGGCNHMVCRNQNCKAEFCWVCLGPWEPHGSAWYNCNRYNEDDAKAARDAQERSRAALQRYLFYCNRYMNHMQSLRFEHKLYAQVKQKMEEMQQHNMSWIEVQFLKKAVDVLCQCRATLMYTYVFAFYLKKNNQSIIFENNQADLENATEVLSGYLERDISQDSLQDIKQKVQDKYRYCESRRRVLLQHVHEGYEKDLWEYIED
UniProt P02654: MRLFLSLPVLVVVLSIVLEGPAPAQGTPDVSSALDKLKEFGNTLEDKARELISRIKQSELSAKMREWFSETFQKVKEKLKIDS
UniProt P08133: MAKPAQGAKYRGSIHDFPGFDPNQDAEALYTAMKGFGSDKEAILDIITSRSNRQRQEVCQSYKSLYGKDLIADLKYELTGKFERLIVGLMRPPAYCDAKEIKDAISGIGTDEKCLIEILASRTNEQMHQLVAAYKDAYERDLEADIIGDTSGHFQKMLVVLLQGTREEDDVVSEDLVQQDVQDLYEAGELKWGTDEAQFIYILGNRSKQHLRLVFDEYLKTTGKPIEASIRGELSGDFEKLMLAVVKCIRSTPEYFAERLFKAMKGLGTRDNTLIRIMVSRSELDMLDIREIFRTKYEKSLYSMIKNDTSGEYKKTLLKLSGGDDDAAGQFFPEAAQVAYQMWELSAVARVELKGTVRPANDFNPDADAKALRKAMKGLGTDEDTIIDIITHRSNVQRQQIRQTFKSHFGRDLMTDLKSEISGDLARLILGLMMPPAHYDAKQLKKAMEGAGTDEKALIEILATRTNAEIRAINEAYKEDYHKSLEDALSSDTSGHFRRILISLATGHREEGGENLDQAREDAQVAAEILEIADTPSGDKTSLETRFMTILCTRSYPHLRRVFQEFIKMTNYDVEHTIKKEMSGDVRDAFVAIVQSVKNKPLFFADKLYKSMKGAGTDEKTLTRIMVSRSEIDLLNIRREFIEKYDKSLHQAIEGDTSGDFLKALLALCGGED
UniProt P61204: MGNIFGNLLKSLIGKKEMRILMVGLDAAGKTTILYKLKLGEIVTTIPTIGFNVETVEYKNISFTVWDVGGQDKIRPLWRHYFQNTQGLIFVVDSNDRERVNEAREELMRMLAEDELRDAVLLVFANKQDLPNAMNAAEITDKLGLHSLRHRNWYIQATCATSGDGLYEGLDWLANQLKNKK
UniProt P07355, whole entry, looked up: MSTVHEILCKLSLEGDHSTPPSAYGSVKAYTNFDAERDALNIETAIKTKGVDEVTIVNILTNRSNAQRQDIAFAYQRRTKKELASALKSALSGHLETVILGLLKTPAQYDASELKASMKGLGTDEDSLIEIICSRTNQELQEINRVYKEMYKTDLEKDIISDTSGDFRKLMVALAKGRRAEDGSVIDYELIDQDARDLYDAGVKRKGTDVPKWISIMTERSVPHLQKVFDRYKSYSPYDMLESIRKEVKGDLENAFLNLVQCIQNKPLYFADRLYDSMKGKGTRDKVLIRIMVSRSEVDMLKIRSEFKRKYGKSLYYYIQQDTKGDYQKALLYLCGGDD
UniProt Q9NP61: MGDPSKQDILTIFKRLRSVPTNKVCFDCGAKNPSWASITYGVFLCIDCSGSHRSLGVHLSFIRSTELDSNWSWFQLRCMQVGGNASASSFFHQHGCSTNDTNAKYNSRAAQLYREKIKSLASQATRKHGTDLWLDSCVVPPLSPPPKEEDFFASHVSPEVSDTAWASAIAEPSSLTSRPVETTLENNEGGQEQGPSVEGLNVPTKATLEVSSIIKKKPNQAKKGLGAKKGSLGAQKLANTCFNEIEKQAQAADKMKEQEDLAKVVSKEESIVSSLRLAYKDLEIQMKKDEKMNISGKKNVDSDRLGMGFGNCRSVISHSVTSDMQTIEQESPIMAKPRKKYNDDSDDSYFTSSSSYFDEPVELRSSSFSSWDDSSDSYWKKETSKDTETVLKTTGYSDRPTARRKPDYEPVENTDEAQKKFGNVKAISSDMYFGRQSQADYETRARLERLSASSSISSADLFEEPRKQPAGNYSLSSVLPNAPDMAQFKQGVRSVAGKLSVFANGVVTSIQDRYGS

What follows are targets tested with CC(C)C[C@@H](C=O)NC(=O)[C@H](CC(C)C)NC(=O)[C@H](CC(C)C)NC(=O)OCc1ccccc1 (assay: log2 fold change, soluble protein after heating vs DMSO (PISA); higher = thermal stabilisation; K562 cells, 10 uM, 30 min; active = over 0.2 and 3.5 SD of the protein, either way, in both replicates (recomputed)).
Procedure, shortened: (§1)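 Thermal stability values are relative to control samples and come from duplicates. They are expressed as log2 fold changes. For measurement, K562 cells (2×10^6 cells/mL) received 10 μM compound for 30 min, and aliquots were heated for 3 min over 48°C-58°C, pooled, and extracted at 4°C in PBS with 0.5% NP-40. Soluble protein, the supernatant after 21,000xg for 90 min, was quantified by TMTpro 16plex LC-MS/MS with equalised channel sums.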

log2 fold change, inactive:
ARHGEF2 (UniProt Q92974) 0.139, APOBEC3C (UniProt Q9NRW3) 0.188, API5 (UniProt Q9BZZ5) 0, ANKHD1 isoform 6 (UniProt Q8IWZ3) 0.094, AP3S1 (UniProt Q92572) 0.023, ANO6 isoform 2 (UniProt Q4KMQ2) 0.004, APMAP (UniProt Q9HDC9) -0.001, APOO (UniProt Q9BUR5) -0.031, ARHGAP45 isoform 2 (UniProt Q92619) 0.007

These targets were tested with CC(C)N(C[C@H]1O[C@@H](n2cnc3c(N)ncnc32)[C@H](O)[C@@H]1O)[C@H]1C[C@@H](CCc2nc3cc(C(C)(C)C)ccc3[nH]2)C1 [pinometostat] in the same assay as above.
Procedure, shortened: as §1

log2 fold change, inactive:
ANXA11 (UniProt P50995) -0.011, ARF1 (UniProt P84077) -0.06, ARCN1 (UniProt P48444) -0.009, AP1M1 (UniProt Q9BXS5) 0.035, ANTKMT (UniProt Q9BQD7) -0.204, ANK3 (UniProt Q12955) 0.403, ANKMY2 (UniProt Q8IV38) -0.012, ANAPC16 (UniProt Q96DE5) -0.24, ANKRD54 (UniProt Q6NXT1) 0.048, ANP32B (UniProt Q92688) -0.023, ARIH1 (UniProt Q9Y4X5) -0.002, APOC1 (UniProt P02654) -0.017, ANXA6 (UniProt P08133) 0.078, ARF3 (UniProt P61204) -0.049, ARHGDIA (UniProt P52565) -0.016, ARF5 (UniProt P84085) -0.037, ANKFY1 isoform 4 (UniProt Q9P2R3) -0.13, API5 isoform 2 (UniProt Q9BZZ5) -0.047, ANXA4 (UniProt P09525) 0.113, ARHGAP18 (UniProt Q8N392) 0.041, ANXA2 isoform 2 (UniProt P07355) -0.043, ARFGAP3 (UniProt Q9NP61) 0.01, APEH (UniProt P13798) -0.016, ARHGEF2 (UniProt Q92974) 0.581, APOBEC3C (UniProt Q9NRW3) 0.338, API5 (UniProt Q9BZZ5) -0.052, ANKHD1 isoform 6 (UniProt Q8IWZ3) 0.323, AP3S1 (UniProt Q92572) 0.02, ANO6 isoform 2 (UniProt Q4KMQ2) 0.026, APMAP (UniProt Q9HDC9) -0.019, APOO (UniProt Q9BUR5) -0.029, ARHGAP45 isoform 2 (UniProt Q92619) 0
